The subject of this experiment is P388 leukemia ip, CD2F1 mice, survival T/C. In words: NCI In Vivo Anticancer Drug Screen. Data for tumor model P388 Leukemia (intraperitoneal) in CD2F1 (CDF1) mice. To be noted: T/C endpoint: median survival time, higher T/C = longer survival.
[1] abbreviates: dose: 100.0 mg/kg/injection, schedule: Q01DX009 (ip), vehicle: saline with Tween-80.
Setting [2] is: dose: 200.0 mg/kg/injection, schedule: Q01DX009 (ip), vehicle: saline with Tween-80.
The mark [3] stands for this setting: dose: 200.0 mg/kg/injection, schedule: Q01DX005 (ip), vehicle: saline with Tween-80.
[4] abbreviates: dose: 6.25 mg/kg/injection, schedule: Q01DX009 (ip), vehicle: distilled water + Tween-80.
The mark [5] stands for this setting: dose: 12.5 mg/kg/injection, schedule: Q01DX009 (ip), vehicle: distilled water + Tween-80.
[6] abbreviates: dose: 25.0 mg/kg/injection, schedule: Q01DX009 (ip), vehicle: distilled water + Tween-80.
Setting [7] is: dose: 50.0 mg/kg/injection, schedule: Q01DX009 (ip), vehicle: distilled water + Tween-80.

The list is a part of this screen's results and no random one: it is rich in T/C values a quarter to a half above the control, in often repeated tests (any T/C) and in doses without a T/C. Other doses and runs of a compound stand elsewhere. T/C is the treated group as % of the vehicle group. Some doses have a count of surviving animals in place of a T/C: the source files T/C as zero there, which appears to mark a toxic dose or a test without result, not a measured value. Some survivor counts are full or nearly so, which does not show that the dose was tolerated: survival well below the control is almost never listed, so the zero probably covers shortened survival too. Counts of survivors are from the toxicity check (mostly the fifth day) where no day follows; animals may have died later. Schedule codes are those of the source, taken here to give the interval after Q, in days (D) or hours (H), and the number of doses after X. Where survival is the endpoint, this PubChem deposit counts one and a half times the control or more as active, and values a quarter to a half above the control carry no call in these data; other NCI protocols may use other cut-offs. Some doses were run more than once; their values stand side by side, smallest first. Some T/C values carry the count of animals alive at the toxicity check (mostly the fifth day); where none is given, no animal had died by that day.

`CCOc1ccc2c(N=[N+]=[N-])cc(C)nc2c1`: the survivor count by setting is: (dose: 120.0 mg/kg/injection, schedule: Q01DX005 (ip), vehicle: saline with Tween-80) 6 of 6; (dose: 240.0 mg/kg/injection, schedule: Q01DX005 (ip), vehicle: saline with Tween-80) 0 of 6.

On to `CC([NH-])CC(C)[NH-].O=C(O)C(=O)O.[Pt+2]` (stereo unspecified), for which the T/C (dose: 6.25 mg/kg/injection, schedule: Q04DX002 (ip), vehicle: saline with Tween-80) is 147 % of control.

Turning to `CCC(=N/NC(=S)NCCN1CCCCC1)/C(CC)=N\NC(=S)NCCN1CCCCC1`, the survivor count is, setting by setting: (dose: 12.5 mg/kg/injection, schedule: Q01DX009 (ip), vehicle: saline with Tween-80) 3 of 6; (dose: 50.0 mg/kg/injection, schedule: Q01DX009 (ip), vehicle: saline with Tween-80) 0 of 6; under setting [1], 0 of 6; under setting [2], 0 of 6.

Consider `C/C=C/c1ccccc1N/N=C(\Cl)C(=O)OCC`, for which the T/C (dose: 30.0 mg/kg/injection, schedule: Q01DX005 (ip), vehicle: saline with Tween-80) is 125 % of control. The survivor count was 3 of 6 under setting [1]; 0 of 6 under setting [2]; 0 of 6 (dose: 400.0 mg/kg/injection, schedule: Q01DX009 (ip), vehicle: saline with Tween-80).

For `O=[N+]([O-])c1cccc2c[n+](Cc3ccccc3)ccc12`, the survivor count under setting [1] was 2 of 6.

Take `C(=N/n1nnc(-c2ccccc2)n1)/c1ccccc1`: the survivor count under setting [3] is listed as 5 of 5.

Turning to `CC(=O)NCCSSCCCCS(=O)O`, the T/C (dose: 200.0 mg/kg/injection, schedule: Q01DX005 (ip), vehicle: saline) is 125 % of control and the T/C (dose: 400.0 mg/kg/injection, schedule: Q01DX005 (ip), vehicle: saline) was 137 % of control.

Turning to `CCNC(=O)OCc1c(COC(=O)NCC)c(-c2ccc(F)cc2)n2c1CCC2`, the T/C by setting is: under setting [4], 127 % of control; under setting [5], 133 % of control; under setting [6], 129 % of control. In addition, under setting [7], the survivor count is recorded as 3 of 6.

With `COc1ccc2c(c1)CCC(c1nc3cccc([N+](=O)[O-])c3[nH]c1=O)=C2O`, the survivor count (dose: 60.0 mg/kg/injection, schedule: Q01DX005 (ip), vehicle: Klucel + Tween-80) is 6 of 6; the survivor count (dose: 120.0 mg/kg/injection, schedule: Q01DX005 (ip), vehicle: Klucel + Tween-80) is 6 of 6; the survivor count (dose: 240.0 mg/kg/injection, schedule: Q01DX005 (ip), vehicle: Klucel + Tween-80) is listed as 4 of 6.

For `CCCCCCCCCCCCCCCCCC(=O)NC1c2ccccc2Oc2ccccc21`, the survivor count is recorded as 5 of 5 (dose: 50.0 mg/kg/injection, schedule: Q01DX005 (ip), vehicle: saline with Tween-80) and 5 of 5 (dose: 100.0 mg/kg/injection, schedule: Q01DX005 (ip), vehicle: saline with Tween-80).

For `CCCCCCCC/C=C\CCCCCCCC(=O)OCCCCCCCCCCCC`, the survivor count (dose: 25.0 mg/kg/injection, schedule: Q01DX012 (ip), vehicle: saline with Tween-80) was 5 of 5 on day 2.

Turning to `OCCNC(=S)Nc1ccccc1`, the survivor count (dose: 30.0 mg/kg/injection, schedule: Q01DX009 (ip), vehicle: saline with Tween-80) is listed as 6 of 6.

Turning to `COc1ccccc1-n1c(=S)n(-c2ccccc2C)c2nc3ccccc3nc1/c2=N\Nc1ccccn1`, the survivor count under setting [3] is given as 0 of 6.

On to `Cc1ccc(Sc2cccc3c(C)c4cccc5c4c(c23)C[S+]5c2ccc(C)cc2)cc1` (stereo unspecified), for which, under “dose: 4.5 mg/kg/injection, schedule: Q01DX009 (ip), vehicle: saline with Tween-80”, the T/C is 127 % of control [5 of 6 alive].

On to `CN1CCC(=C2c3ccccc3CCc3sccc32)CC1`, for which the survivor count (dose: 200.0 mg/kg/injection, schedule: Q01DX009 (ip), vehicle: saline) was 0 of 6.

Regarding `Cn1c(-c2ccccc2)c(COC(=O)NC2CCCCC2)c(COC(=O)NC2CCCCC2)c1-c1ccc(Cl)cc1`, the T/C reads like this: under setting [5], 127 % of control; (dose: 18.8 mg/kg/injection, schedule: Q01DX009 (ip), vehicle: distilled water + Tween-80) 131 % of control; under setting [6], 136 % of control; (dose: 37.5 mg/kg/injection, schedule: Q01DX009 (ip), vehicle: distilled water + Tween-80) 149 % of control [5 of 6 alive]; (dose: 150.0 mg/kg/injection, schedule: Q01DX009 (ip), vehicle: distilled water + Tween-80) 128 % of control. The survivor count (dose: 300.0 mg/kg/injection, schedule: Q01DX009 (ip), vehicle: distilled water + Tween-80) is 3 of 6.

`CC(=O)Nc1cccc(OCc2cccc(N3C(N)=NC(N)=NC3(C)C)c2)c1`: the T/C under setting [6] was 127 % of control and the T/C under setting [7] was 136 % of control. The survivor count runs as follows: (dose: 50.0 mg/kg/injection, schedule: Q01DX009 (ip), vehicle: saline) 5 of 5; (dose: 100.0 mg/kg/injection, schedule: Q01DX009 (ip), vehicle: distilled water + Tween-80) 0 of 5; (dose: 100.0 mg/kg/injection, schedule: Q01DX009 (ip), vehicle: saline) 0 of 5.

For the molecule `COc1ccc2c(c1)c(CC(N)=O)c(C)n2C(=O)c1ccc(Cl)nc1`, the survivor count (dose: 211.0 mg/kg/injection, schedule: Q01DX005 (ip), vehicle: saline with Tween-80) is reported as 6 of 6.

Turning to `CCc1nc(N)nc(N)c1-c1ccc(Cl)c([N+](=O)[O-])c1`, the T/C was 125 % of control [5 of 6 alive] (dose: 1.56 mg/kg/injection, schedule: Q01DX009 (ip), vehicle: distilled water + Tween-80) and 147 % of control under setting [4]. Further, the survivor count is, setting by setting: under setting [5], 6 of 6; under setting [6], 6 of 6; under setting [7], 4 of 6.

Regarding `O=C(O)/C=N/NS(=O)(=O)c1ccc(Cl)cc1`, the T/C runs as follows: (dose: 12.5 mg/kg/injection, schedule: Q01DX009 (ip), vehicle: other) 126 % of control; (dose: 25.0 mg/kg/injection, schedule: Q01DX009 (ip), vehicle: other) 134 and 142 % of control; (dose: 50.0 mg/kg/injection, schedule: Q01DX009 (ip), vehicle: other) 134 % of control. The survivor count (dose: 100.0 mg/kg/injection, schedule: Q01DX009 (ip), vehicle: other) was 0 of 6; the survivor count (dose: 200.0 mg/kg/injection, schedule: Q01DX009 (ip), vehicle: other) was 2 of 6; the survivor count (dose: 400.0 mg/kg/injection, schedule: Q01DX009 (ip), vehicle: other) is listed as 1 of 6.

For the molecule `CCn1cnc2c(=S)nc(N)[nH]c21`, the survivor count is, setting by setting: (dose: 50.0 mg/kg/injection, schedule: Q01DX009 (ip), vehicle: Klucel (hydroxypropylcellulose) (HPC)) 6 of 6; (dose: 100.0 mg/kg/injection, schedule: Q01DX009 (ip), vehicle: Klucel (hydroxypropylcellulose) (HPC)) 6 of 6.

On to `CS/N=C(/c1ccc(/C(=N/SC)N(C)C)cc1)N(C)C`, for which the survivor count (dose: 240.0 mg/kg/injection, schedule: Q01DX005 (ip), vehicle: Klucel (hydroxypropylcellulose) (HPC)) is 1 of 6.

Consider `O=C1C=CC(=O)N1CC[P+](c1ccccc1)(c1ccccc1)c1ccccc1`, for which the survivor count is 4 of 6 (dose: 50.0 mg/kg/injection, schedule: Q01DX009 (ip), vehicle: water); 0 of 6 (dose: 100.0 mg/kg/injection, schedule: Q01DX009 (ip), vehicle: water); 0 of 6 (dose: 200.0 mg/kg/injection, schedule: Q01DX009 (ip), vehicle: water).

As to `CCCCCCCCCCCCCCCCONc1ccnc(=O)[nH]1`, the survivor count (dose: 150.0 mg/kg/injection, schedule: Q01DX001 (ip), vehicle: Klucel (hydroxypropylcellulose) (HPC)) is recorded as 6 of 6.

With `CCOC(=O)NN(C(=O)OCC)C(C(C)=O)C(C)=NCCN=C(C)C(C(C)=O)N(NC(=O)OCC)C(=O)OCC.[Cu]` (stereo unspecified), the survivor count runs as follows: (dose: 100.0 mg/kg/injection, schedule: Q01DX005 (ip), vehicle: Klucel (hydroxypropylcellulose) (HPC)) 0 of 5; (dose: 200.0 mg/kg/injection, schedule: Q01DX005 (ip), vehicle: Klucel (hydroxypropylcellulose) (HPC)) 0 of 5.

The record behind these values is PubChem BioAssay AID330 (DTP/NCI, 2004).
